Primary screen of a compound library

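Whole-cell assay for inhibitors of Mycobacterium tuberculosis growth, labelled Cornell in the record; the read-out is not stated. The concentration is filed as 10 mM, unlikely as a test dose, so the dose is not known. The record gives no direction; compounds strong in two other growth screens of this library score well above the rest, so higher reads as stronger inhibition. About 53,000 compounds were tested under these conditions; 1.7% (about 900) showed 50% or more at least once.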

Each number is a percent effect as filed.
The controls that fix the scale are not given in the record; negative values are as filed.
Compounds were drawn at random from those tested, without regard to their results.

For CC(=O)N1CCCC(C(=O)Nc2ccccc2Cc2ccccc2)C1 (centres unmarked) the result was -28.36%.
For CC(=O)CN1CC2(CCNCC2)COc2ccccc2S1(=O)=O.O=C(O)C(F)(F)F the result was -11.01%.
For CC(C)(CO)Nc1cc(-c2cn[nH]c2)ncn1.Cl the result was 16.71%.
For COCCO[C@H]1CCN(C(=O)c2cnccn2)[C@H]1Cc1ccncc1 the result was -13.03%.
For N#Cc1cccc(CS(=O)(=O)NCC(O)Cc2ccccc2)c1 (centres unmarked) the result was 16.09%.
For CCc1nc(NC2CC(=O)N(CC3CCCCC3)C2)ncc1C (centres unmarked) the result was 17.04%.
For CC(=O)N[C@@H]1CN(C(=O)c2cccc(C)c2)C[C@H]1O the result was 41.58%.
For CCn1ccnc1CN1CCN(C(C)C)CC1C (centres unmarked) the result was -32.97%.
For Cc1ccc(S(=O)(=O)Cc2nsc(N(C)C)n2)c(C)c1 the result was 21.67%.
For Cc1cccnc1NC(=O)C1CCCN(c2cccc(C(F)(F)F)n2)C1 (centres unmarked) the result was -0.6388%.
For CCc1ncnc2c1CCN(C(=O)c1ccncc1F)CC2.O=C(O)C(F)(F)F the result was 13.83%.
For COc1ccc(-n2nc(C3CC3)nc2CCn2cnnn2)cc1 the result was -19.51%.
For CN(Cc1ccncc1)C(=O)c1ccc(F)c(NS(C)(=O)=O)c1 the result was 25.67%.
For O=C(O)C(F)(F)F.O=C(O)C(F)(F)F.[H][C@@]12CCCO[C@]1([H])[C@H](N(C)C)CN(Cc1ccco1)C2 the result was 3.871%.
For CN(C)c1cc(C2CCCN(C(=O)c3ccc(=O)[nH]n3)C2)ccn1 (centres unmarked) the result was 1.692%.
For O=C(O)C(F)(F)F.O=C(O)C(F)(F)F.[H][C@@]12C[C@H](C(=O)NCC3CC3)N(C)[C@]1([H])CN(Cc1ccsc1)C2 the result was -15.31%.
For CCC(C)(C)NC(=O)CN(C)C(c1cccc(F)c1)c1ccccn1 (centres unmarked) the result was 15.29%.
For Cc1nccn1[C@@H]1CC[C@@H](NC(=O)CCOc2ccccc2)[C@H]1O the result was 5.027%.
For Fc1cccc(CNCC2OCCc3cn(CC4CCOCC4)nc32)c1.O=C(O)C(F)(F)F (centres unmarked) the result was 38.3%.
For COCCn1ccc(=O)c(OCC(=O)Nc2cccc(OC)c2)c1C the result was -5.179%.
For Cc1n[nH]c2c1C(c1ccc(Cl)cc1)SCC(=O)N2 (centres unmarked) the result was -19.83%.
For CCCNC(=O)NC(C)c1ccccn1 (centres unmarked) the result was 55.13%.
For [H][C@@]12COC[C@]1(COCc1cccc(C)n1)CN(c1ncccn1)C2 the result was 19.52%.
For NC(=O)C1CCN(C(=O)NC(Cc2ccccc2)C(F)(F)F)CC1 (centres unmarked) the result was 18.06%.
For CC(C)NC(=O)CC1COC2(CCN(Cc3cccnc3)CC2)C1.O=C(O)C(F)(F)F.O=C(O)C(F)(F)F (centres unmarked) the result was 23.06%.
For Cc1cc(NC(=O)CN2C(=O)CC(C)(C)c3ccccc32)no1 the result was 24.56%.
For FC(F)(F)c1nnc2n1CCN(c1nc(C3CC3)ns1)C2 the result was 0.6137%.
For Cc1nsc(NC(=O)NC2CCN(C)CC2)n1 the result was 24.77%.
For CC(C)(C)NC(=O)CN1CCCNCC1 the result was 8.909%.

Repeated from the top, 3 entries:

SMILES,effect
CC(=O)N1CCCC(C(=O)Nc2ccccc2Cc2ccccc2)C1 (centres unmarked),-28.36
CC(=O)CN1CC2(CCNCC2)COc2ccccc2S1(=O)=O.O=C(O)C(F)(F)F,-11.01
CC(C)(CO)Nc1cc(-c2cn[nH]c2)ncn1.Cl,16.71

Source: ChEMBL document CHEMBL3988442, “University of Dundee, Small-Polar-MMV Screening Library” (2021).